In patent US20190359653A1, “SELECTIVE PEPTIDE INHIBITORS OF FRIZZLED” (Genentech, Inc., priority 2016, published 2019):
For some assays here: At least one structure is not confirmed: it was looked up by name or label, or the drawing left a doubt. Some entries share one result that the patent states for a list of compounds. Peptide text beside a SMILES is read from it. * marks the point of attachment. 5FAM = O=C1OC2(c3ccc(O)cc3Oc3cc(O)ccc32)c2ccc(C(=O)*)cc21

Columns and labels:
hFZD1 CRD-Fc = target: T1, hFZD1 CRD-Fc (Homo sapiens, UniProt Q9UP38); test: fluorescence intensity binding of 5FAM peptides (Monolith NT.115); conditions: done twice, read-out: 5FAM-Fz7-21S EC50
T1 construct: hFZD1 CRD-Fc (cat no. 5988-FZ); purchased R&D systems 5988-FZ

mFZD9 CRD-Fc = target: T2, mFZD9 CRD-Fc (Mus musculus, UniProt Q9R216); test: as above; conditions: read-out: 5FAM-Fz7-21 EC50
T2 construct: mFZD9 CRD-Fc (cat no. 2440-FZ); purchased R&D systems 2440-FZ
T2 sequence (Q9R216 35-156 limits assumed): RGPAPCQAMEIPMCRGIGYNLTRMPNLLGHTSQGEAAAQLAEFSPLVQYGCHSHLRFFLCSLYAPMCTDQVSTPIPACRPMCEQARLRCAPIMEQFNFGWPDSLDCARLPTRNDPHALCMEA

hFZD4 CRD-Fc = target: T3, hFZD4 CRD-Fc (Homo sapiens, UniProt Q9ULV1); test: as above; conditions: read-out: 5FAM-Fz7-21 EC50
T3 construct: hFZD4 CRD-Fc (cat no. 5847-FZ); purchased R&D systems 5847-FZ
T3 sequence (Q9ULV1 40-161 limits assumed): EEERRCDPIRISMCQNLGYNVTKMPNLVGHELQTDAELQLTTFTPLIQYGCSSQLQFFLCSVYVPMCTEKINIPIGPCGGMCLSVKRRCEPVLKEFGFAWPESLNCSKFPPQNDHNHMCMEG

hFZD10 CRD-Fc = target: T4, hFZD10 CRD-Fc (Homo sapiens, UniProt Q9ULW2); test: as above; conditions: read-out: 5FAM-Fz7-21 EC50
T4 construct: hFZD10 CRD-Fc (cat no. 3459-FZ); purchased R&D systems 3459-FZ
T4 sequence (Q9ULW2 29-150 limits assumed): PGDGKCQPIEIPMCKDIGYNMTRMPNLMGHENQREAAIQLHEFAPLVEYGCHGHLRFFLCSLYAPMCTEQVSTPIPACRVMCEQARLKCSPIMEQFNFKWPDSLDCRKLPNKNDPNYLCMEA

hFZD5 CRD-Fc = target: T5, hFZD5 CRD-Fc (Homo sapiens, UniProt Q13467); test: as above; conditions: read-out: 5FAM-Fz7-21 EC50
T5 construct: hFZD5 CRD-Fc (cat no. 1617-FZ); purchased R&D systems 1617-FZ
T5 sequence (Q13467 28-150 limits assumed): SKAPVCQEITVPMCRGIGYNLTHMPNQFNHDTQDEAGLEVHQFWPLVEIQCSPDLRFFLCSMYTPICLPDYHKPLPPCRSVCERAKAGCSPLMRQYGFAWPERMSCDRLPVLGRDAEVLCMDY

FZD8 CRD-Fc = target: T6, FZD8 CRD-Fc (Homo sapiens, UniProt Q9H461); test: as above; conditions: read-out: 5FAM-Fz7-21 EC50
T6 construct: hFZD8 CRD-Fc (cat no. 6129-FZ); purchased R&D systems 6129-FZ
T6 sequence (Q9H461 30-151 limits assumed): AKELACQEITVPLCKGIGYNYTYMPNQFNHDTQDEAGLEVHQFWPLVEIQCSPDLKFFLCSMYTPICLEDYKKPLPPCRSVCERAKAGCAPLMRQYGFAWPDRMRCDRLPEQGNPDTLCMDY

[1] = test system: Wnt3a binding to FZD1 CRD, FZD2 CRD, and FZD7 CRD; test: ELISA of biotinylated Wnt3a binding to FZD CRD-Fc; conditions: for enhancement of bio-Wnt3a binding to FZD7 class proteins: ELISA; for peptide concentrations at which Wnt3a binding increased: FIGS. 22D, 22E
Experimental: (§1) 384-well Maxisorp plates (cat. no. 464718; Thermo Scientific) were incubated with 30 μL of Neutravidin (cat. no. 31000, Thermo Scientific; 2 μg/mL in PBS) overnight at 4° C. Plates were then washed with PBST and blocked with PBS/1% BSA for 1 hour at RT and then washed with PBST prior to further processing. The binding assay was conducted in 96 well plates (cat no. 83007-374; VWR) which were blocked with PBS/1% BSA overnight at 4° C. hFZD4 CRD-Fc or hFZD7 CRD-Fc (63 ng/mL) were incubated with either Bio-Wnt3a (25 ng/mL) or Bio-Wnt5a (50 ng/mL) in the presence of 4-fold serial dilutions of the indicated peptide in PBS overnight at 4° C. All assays included hFZD9 CRD-mIgG2A protein as a negative control. hFZD7 CRD-His was suspended in 150 mM NaCl, 50 mM Tris-HCl at pH 7.5 and when used in assays an equal volume of the same buffer control was used. The binding assay mixtures were transferred to the Neutravidin coated plates and incubated for ˜1 h at RT. The wells were then washed with PBST, incubated with anti-hIgG1-HRP (1:10,000 suspended in PBS supplemented with 1% BSA; cat. no. A18817, Invitrogen), and washed again with PBST. The signal was developed with the addition of TMB reagent (following the manufacturer's recommendation; KPL; 50-76-00) for 15 min prior to the addition of an equal volume of 1 M phosphoric acid for 10 min Absorbance was measured at 450 nm using a Tekan M1000 plate reader. Values were collected and plotted using Prism Graphpad software. All assay conditions using peptides were at 1% DMSO final concentration.
(§2) Without being bound be theory, the substantial conformational change induced by dFz7-21 on hFZD7 CRD, as exemplified by the altered geometry of the lipid binding cavity, may facilitate the accommodation of two Wnt molecules simultaneously onto the hFZD7 CRD dimer (FIG. 4e-h).
Similar results were observed using Wnt3a. […] Binding of Wnt3a to FZD1 CRD, FZD2 CRD, and FZD7 CRD increased in the presence of dFz7-21 at concentrations below about 0.5 μM (FIG. 22E), with the most binding seen in the presence of 0.01 μM-0.05 μM dFz7-21. […] Fz7-21S had no effect on Binding of Wnt3a to any of the FZD CRDs tested (FIG. 22F).

[2] = test system: Wnt5a binding to FZD1 CRD, FZD2 CRD, and FZD7 CRD; test: ELISA of biotinylated Wnt5a binding to FZD CRD-Fc; conditions: for enhancement of bio-Wnt5a binding to FZD7 class proteins: ELISA; for peptide concentrations at which Wnt5a binding increased: FIGS. 22A, 22B
Experimental: as §1, §2
Briefly, the assays were performed using (a) FZD1 CRD-Fc, (b) FZD2 CRD-Fc, (c) FZD4 CRD-Fc, or (d) FZD7 CRD-Fc as the capture reagent and biotinylated-Wnt5a as the detection reagent. […] Streptavidin-HRP was used to detect biotinylated Wnt5a, and HRP activity was measured as a function of chemiluminescence detection at 428 nm. […] Fz7-21S had no effect binding of Wnt5a to any of the FZD CRDs tested (FIG. 22C).

Compound	EC50 (hFZD1 CRD-Fc) [µM]	EC50 (mFZD9 CRD-Fc) [µM]	EC50 (hFZD4 CRD-Fc) [µM]	EC50 (hFZD10 CRD-Fc) [µM]	EC50 (hFZD5 CRD-Fc) [µM]	EC50 (FZD8 CRD-Fc) [µM]	enhancement of bio-Wnt3a binding to FZD7 class proteins [1]	peptide concentrations at which Wnt3a binding increased [1]	enhancement of bio-Wnt5a binding to FZD7 class proteins [2]	peptide concentrations at which Wnt5a binding increased [2]
CSCC[C@H](NC(=O)[C@@H](NC(=O)[C@H](Cc1c[nH]cn1)NC(=O)[C@H](CO)NC(=O)[C@H](Cc1c[nH]c2ccccc12)NC(=O)[C@H](Cc1ccccc1)NC(=O)[C@H](CCC(=O)O)NC(=O)[C@H](CC(C)C)NC(=O)[C@H](CC(=O)O)NC(=O)[C@H](CC(=O)O)NC(=O)[C@H](CO)NC(=O)[C@@H]1CCCN1C(=O)[C@H](CC(C)C)NC(=O)c1ccc2c(c1)C(=O)OC21c2ccc(O)cc2Oc2cc(O)ccc21)C(C)C)C(=O)N[C@@H](Cc1ccc(O)cc1)C(N)=O [5FAM-Fz7-21S] (5FAM-LPSDDLEFWSHVMY-NH2; N-terminus and C-terminus assumed)	> 10	–	–	–	–	–	–	–	–	–
CSCC[C@H](NC(=O)[C@@H](NC(=O)[C@H](Cc1c[nH]cn1)NC(=O)[C@H](CS)NC(=O)[C@H](Cc1c[nH]c2ccccc12)NC(=O)[C@H](Cc1ccccc1)NC(=O)[C@H](CCC(=O)O)NC(=O)[C@H](CC(C)C)NC(=O)[C@H](CC(=O)O)NC(=O)[C@H](CC(=O)O)NC(=O)[C@H](CO)NC(=O)[C@@H]1CCCN1C(=O)[C@H](CC(C)C)NC(=O)c1ccc2c(c1)C(=O)OC21c2ccc(O)cc2Oc2cc(O)ccc21)C(C)C)C(=O)N[C@@H](Cc1ccc(O)cc1)C(N)=O [5FAM-Fz7-21] (5FAM-LPSDDLEFWCHVMY-NH2; N-terminus and C-terminus assumed)	–	> 10	> 10	> 10	> 10	> 10	–	–	–	–
LPSDDLEFWCHVMY [Fz7-21]	–	–	–	–	–	–	1.5-2 fold	below 0.5 μM	1.5-2 fold	below 0.5 μM
LPSDDLEFWCHVMY [dFz7-21]	–	–	–	–	–	–	1.5-2 fold	below 0.5 μM	1.5-2 fold	below 0.5 μM
